Consider one molecule from article PMC12635182.

These are yes or no findings as the source states them, for the method shown. Binding seen in cells or lysates may run through a third protein. Some results given as binding are weak or reduced against the parent protein; the word gives no strength. Sequences can lack the tags named with a protein.

This test has as its target T1, VN-Sph1 (synphilin-1 fused behind the N-terminal fragment of Venus) (human) (UniProt Q9Y6H5).
T1 sequence: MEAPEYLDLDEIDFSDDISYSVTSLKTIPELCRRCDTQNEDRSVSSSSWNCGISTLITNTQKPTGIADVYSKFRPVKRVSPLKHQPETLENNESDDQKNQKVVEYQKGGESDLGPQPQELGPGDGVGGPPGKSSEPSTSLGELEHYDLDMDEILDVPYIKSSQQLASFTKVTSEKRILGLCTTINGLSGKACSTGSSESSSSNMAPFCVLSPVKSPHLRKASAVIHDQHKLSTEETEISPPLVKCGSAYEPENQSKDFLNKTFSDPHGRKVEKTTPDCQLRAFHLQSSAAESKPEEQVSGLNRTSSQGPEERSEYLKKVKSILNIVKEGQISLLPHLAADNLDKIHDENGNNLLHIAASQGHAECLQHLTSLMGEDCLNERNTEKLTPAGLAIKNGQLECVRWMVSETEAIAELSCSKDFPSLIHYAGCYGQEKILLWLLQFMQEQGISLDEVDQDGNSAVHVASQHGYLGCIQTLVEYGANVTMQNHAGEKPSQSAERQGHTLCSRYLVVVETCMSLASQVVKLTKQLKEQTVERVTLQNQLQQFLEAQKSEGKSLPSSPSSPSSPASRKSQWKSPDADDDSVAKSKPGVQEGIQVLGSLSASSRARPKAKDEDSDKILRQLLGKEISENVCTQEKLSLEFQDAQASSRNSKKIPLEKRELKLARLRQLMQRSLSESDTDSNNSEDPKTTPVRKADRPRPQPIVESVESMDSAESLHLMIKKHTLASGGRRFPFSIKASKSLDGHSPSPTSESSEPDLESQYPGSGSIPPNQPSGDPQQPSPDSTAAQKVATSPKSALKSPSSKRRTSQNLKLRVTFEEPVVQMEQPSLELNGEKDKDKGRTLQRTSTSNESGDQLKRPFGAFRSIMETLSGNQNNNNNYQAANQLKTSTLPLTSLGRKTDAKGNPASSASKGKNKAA
Nature of the test: split reporter; Venus BiFC in HEK 293 cells co-transfected with equimolar amounts of the VN and VC plasmids; fluorescence seen 24 or 48 h after transfection.

B1: Sph1-VC (synphilin-1 fused in front of the C-terminal fragment of Venus) (protein, UniProt Q9Y6H5 1-919)
chain: T1 sequence
With B1, the binding entry is reported as “binds”.
